For the assay, the system named is vaccinia virus mature virions (EGFP-MV). Format: cell-based.

Results on one compound are retold here after patent US20100272706A1, “ANTIVIRALS” (priority 2007, published 2010).

Consider `CN[C@@H]1C[C@H]2O[C@@](C)([C@@H]1OC)n1c3ccccc3c3c4c(c5c6ccccc6n2c5c31)C(=O)NC4` [Staurosporin], for which the “inhibition of viral infection” value is on record as “up to 65%”.
